Experimental data reported in PubChem BioAssay AID274 (DTP/NCI, 2004).
The list is a part of this screen's results and no random one: its compounds were picked by chemical class. Other doses and runs of a compound may be missing. T/C is the treated group as % of the vehicle group. For survival time, the PubChem record calls one and a half times the control and up active, and a quarter to a half above the control has no call in these data; cut-offs in other NCI protocols can differ. Schedules are NCI's codes, read here as Q, the interval in days (D) or hours (H), X, the number of doses. Some entries show no survivor count and are marked so; the dose need not have been tolerated.

System: BDF1 mice, Lewis lung carcinoma iv, survival T/C
Assay: NCI In Vivo Anticancer Drug Screen. Data for tumor model Lewis Lung Carcinoma (intravenous) in B6D2F1 (BDF1) mice
Conditions: T/C endpoint: median survival time, schedule: Q01DX009 (ip), higher T/C = longer survival
Method: The antitumor activity of compounds was measured in mice bearing transplantable tumors. Survival or tumor size were measured and the results are expressed as the measurement made in the treated group (T) divided by the measurement made in the vehicle treated control group (C). The tumor model used in this assay is Lewis Lung Carcinoma (intravenous) in B6D2F1 (BDF1) mice

Structure (SMILES): C=C(C)C(=O)OCC12CCC(C)=CC1OC1C(=O)C(OC(=O)C(=C)C)C2(C)C12CO2 (configuration not stated)
- T/C (dose: 0.25 mg/kg/injection, vehicle: DMSO): 101 % of control [survivor count not shown]
- T/C (dose: 0.25 mg/kg/injection, vehicle: saline with Tween-80): 93 % of control [survivor count not shown]
- T/C (dose: 0.5 mg/kg/injection, vehicle: DMSO): 97 % of control [survivor count not shown]
- T/C (dose: 0.5 mg/kg/injection, vehicle: saline with Tween-80): 98 % of control [survivor count not shown]
- T/C (dose: 1.0 mg/kg/injection, vehicle: saline with Tween-80): 102 % of control [survivor count not shown]
- T/C (dose: 2.0 mg/kg/injection, vehicle: saline with Tween-80): 102 % of control [survivor count not shown]
- T/C (dose: 4.0 mg/kg/injection, vehicle: saline with Tween-80): 102 % of control [survivor count not shown]
- T/C (dose: 8.0 mg/kg/injection, vehicle: saline with Tween-80): 93 % of control [survivor count not shown]

Structure (SMILES): CC1=C[C@H]2O[C@@H]3C[C@H]4OC(=O)/C=C\C=C\C(C(C)O)OCC[C@@H](C)[C@H](O)C(=O)OC[C@@]2(CC1)[C@]4(C)[C@]31CO1 (some centres not stated)
- T/C (dose: 0.03 mg/kg/injection, vehicle: Klucel (hydroxypropylcellulose) (HPC)): 92 % of control [survivor count not shown]

Structure (SMILES): CC1=C[C@H]2O[C@@H]3C[C@H]4OC(=O)/C=C\C=C\[C@H]([C@@H](C)O)OC[C@H](O)[C@@]5(C)O[C@@H]5C(=O)OC[C@@]2(C[C@H]1O)[C@]4(C)C31CO1 (some centres not stated)
- T/C (dose: 0.15 mg/kg/injection, vehicle: Klucel (hydroxypropylcellulose) (HPC)): 116 % of control [survivor count not shown]
- T/C (dose: 0.31 mg/kg/injection, vehicle: Klucel (hydroxypropylcellulose) (HPC)): 94 % of control [survivor count not shown]
- T/C (dose: 1.25 mg/kg/injection, vehicle: Klucel (hydroxypropylcellulose) (HPC)): 99 % of control [survivor count not shown]
